This note sets out measurements from PubChem BioAssay AID2685 (National Center for Advancing Translational Sciences (NCATS), 2010).

What is called AC50 is the midpoint of the concentration-response curve, whichever way the signal moves.

The assay is described as follows: qHTS Assay for Lipid Storage Modulators in Drosophila S3 Cells.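 As to cell number change: cells counted by Cell Tracker Red CMTPX staining in the red channel.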 The conditions noted are these: BODIPY lipid droplet fluorescence, 18-24 h; for cell number change: measured here: cell count max response, cells fed with added oleic acid. An outline of the steps: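 Drosophila S3 cells loaded with oleic acid (400 uM, as added) and compounds at several concentrations; lipid droplets imaged by 488-nm laser-scanning cytometry, 500–530 nm intensity and object ratio to cell channel. Percent activity normalized to 20 uM Triacsin C.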
For orientation: qHTS replaces the single test concentration by a dilution series.

Setting [1] is: measured here: cell number channel AC50, cells fed with added oleic acid.
The mark [2] stands for this setting: measured here: lipid fluorescence (Fed channel) AC50, cells fed with added oleic acid.

The list shows a part of the results. Shown are side measurements of this screen, not its main read-out; they come without a call. Compounds called inactive in the main read-out are mostly missing here. The note in brackets gives the kind of curve behind each potency; many fits are weak.

For the compound `CCCCn1c(SCC(=O)NC2CCCC2)nc2ccccc2c1=O`, the cell number change amounted to 100%. Besides, under setting [1], the AC50 was 5.17 µM [rising, full curve]. In addition, the AC50 under setting [2] was 18.4 µM [rising, partial curve]. Take `CC(=O)Nc1sc2c(c1C#N)CCC2`: the cell number change amounted to 8.61%.

Turning to `COCCn1c(SCC(=O)Nc2cc(C)on2)nc2c(c1=O)SCC2`, the cell number change came out at 4.69%. Take `O=C(CN1CC(=O)Oc2ccccc21)NCc1ccco1`: the cell number change was determined as 11.6%. Also, under setting [2], the half-maximal activity concentration (AC50) is 6.51 µM [falling, single point].

For `Cc1cc(Cl)ccc1OCC(=O)N1CC(C)CC(C)C1` (stereo not given), the cell number change turned out to be 5.14%. The AC50 under setting [2] is 0.00461 µM [rising, full curve, poor fit]. `CC(=O)c1ccccc1OCCn1nnc(-c2ccc(C)cc2)n1`: the cell number change is -37.7%. Further, under setting [1], the AC50 is 23.1 µM [falling, single point]. Moreover, the half-maximal activity concentration (AC50) under setting [2] was 29.1 µM [falling, single point]. Take `N=c1c(C(=O)NCC2CCCO2)cc2c(=O)n3ccccc3nc2n1Cc1ccc(F)cc1` (stereo not given): the cell number change came to 23.3%.

In the case of `CCNC(=S)NCc1ccco1`, the cell number change was -7.78%. On to `COc1ccc(C(c2nnnn2CC2CCCO2)N2CCN(c3cccc(C)c3C)CC2)cc1` (stereo not given), for which the cell number change was -25.7%. Moreover, the half-maximal activity concentration (AC50) under setting [2] was 11.6 µM [rising, partial curve]. For the compound `CCC(O)(CC)C(=O)N(Nc1ccc(C)cc1)c1ccc(C)cc1`, the cell number change was 12.6%. On to `Cc1nn(Cc2ccccc2Cl)c(C)c1C(=O)Nc1nnc(C2CC2)s1`, for which the cell number change came out at 97.9%. In addition, the AC50 under setting [2] is 23.1 µM [rising, partial curve, poor fit].

`CN(C)c1[nH]c(=O)c(C#N)c2c1CCN2Cc1ccccc1`: the cell number change was -8%. The concentration at half-maximal activity (AC50) under setting [2] is 29.1 µM [rising, single point]. For `Cc1ccc2[nH]c(=O)c(CN(C(=O)c3cccc([N+](=O)[O-])c3)C(C)C)cc2c1`, the cell number change came to 24.1%. The AC50 under setting [2] is 11.6 µM [rising, single point]. For the compound `CCCCC(CC)CNC(=O)C(=O)c1ccccc1NC(C)=O` (stereo not given), the cell number change worked out at 34.3%. The half-maximal activity concentration (AC50) under setting [1] is 4.11 µM [rising, partial curve].

Turning to `CCN1CCc2c(OCC(=O)N3CCCc4ccccc43)cccc2C1=O`, the cell number change was -25.2%. Besides, the concentration at half-maximal activity (AC50) under setting [1] was 0.82 µM [falling, single point]. As to `COc1ccccc1C1=NOC(C)(c2nnc(Cc3ccccc3)o2)C1` (stereo not given), the cell number change worked out at 3.88%. Besides, the AC50 under setting [2] was 23.1 µM [rising, single point]. As to `COc1cc(OC)c(-n2cc(-c3ccc(OC)c(OC)c3)[nH]c2=S)cc1Cl`, the cell number change came out at 12.6%. For the same compound, under setting [2], the AC50 was 0.326 µM [falling, full curve, poor fit]. On to `COc1ccc2occ(C(C)=O)c2c1`, for which the cell number change was determined as 0.921%. Besides, under setting [1], the concentration at half-maximal activity (AC50) is 1.64 µM [rising, partial curve]. In addition, the AC50 under setting [2] was 20.6 µM [rising, single point]. As to `O=C(Nc1ccc(S(=O)(=O)N2CCc3ccccc32)cc1)c1ccco1`, the cell number change is -8.46%. As for `Cc1ccc(N(Cc2ccccc2)C(=O)Cc2ccc(S(=O)(=O)N3CCOCC3)s2)cc1`, the cell number change was -8.43%. On to `CCOC(=O)c1cc(-c2ccc(Cl)s2)nc2c1c(C)nn2C`, for which the half-maximal activity concentration (AC50) under setting [1] was 1.64 µM [rising, partial curve].

As for `CCOC(=O)C1CCN(S(=O)(=O)c2ccc(OCC(=O)OC)cc2)CC1`, the cell number change is -1.72%. Also, the AC50 under setting [2] was 0.146 µM [falling, full curve, poor fit]. As for `O=C(CCN1C(=O)c2ccncc2C1=O)NCc1ccc(Cl)cc1`, the cell number change was 24.4%. The concentration at half-maximal activity (AC50) under setting [2] was 23.1 µM [rising, single point]. As to `COc1ccccc1NS(=O)(=O)c1cc(NC(=O)CCNC(C)=O)ccc1N1CCCCC1`, the cell number change is -16.5%. With `O=C(c1oc2ccccc2c1N1CCCCC1)N1CCCCC1`, the cell number change was -10.8%. Besides, under setting [2], the AC50 was 6.51 µM [rising, partial curve].

`COc1cccc(NC(=O)/C=C/c2ccccc2[N+](=O)[O-])c1`: the cell number change is -13.3%. Also, the AC50 under setting [1] is 0.00411 µM [falling, partial curve, poor fit]. In addition, the AC50 under setting [2] was 8.2 µM [falling, partial curve]. For the compound `O=S(=O)(c1ccc(N2CCOCC2)nc1)N(Cc1ccccn1)Cc1ccccn1`, the AC50 under setting [2] was 3.66 µM [rising, single point]. In the case of `Cn1c(NC(=O)c2ccccc2C(F)(F)F)cc(=O)n(C)c1=O`, the AC50 under setting [1] was 6.51 µM [falling, single point]. On to `Cc1cccc(NC(=O)c2nc[nH]c2C(=O)N2CCc3ccccc3C2)c1`, for which the cell number change stood at 3.04%. Regarding `O=C(O)c1csc(Br)c1Br`, the AC50 under setting [2] was 0.0058 µM [rising, full curve, poor fit]. Regarding `CCOC(=O)c1c(NC(=O)CC)sc(C(=O)NC2CCCC2)c1C`, the cell number change was -5.04%. Besides, the half-maximal activity concentration (AC50) under setting [2] was 5.8 µM [falling, full curve, poor fit].

For `CCCCC1=CC2=CC(=O)C(C)(OC(=O)CC)C(=O)C2=CN1CCN1CCOCC1` (stereo not given), the cell number change was determined as 31.7%. Moreover, the half-maximal activity concentration (AC50) under setting [1] was 1.46 µM [rising, full curve, poor fit]. Under setting [2], the AC50 is 0.13 µM [rising, full curve, poor fit]. Consider `CCCCNC(=O)c1ccc(NC(C)=O)c(Cl)c1`, for which the cell number change was determined as 8.68%. Also, the half-maximal activity concentration (AC50) under setting [1] is 0.112 µM [falling, full curve, poor fit]. Turning to `COc1ccccc1NC(=O)CSc1nnc(C2CCCCC2)n1N`, the cell number change was -5.67%.

Turning to `Cc1ccc(C)c(N2CCN(c3ccncc3N)CC2)c1`, the cell number change is -50%. Also, under setting [1], the AC50 is 23.1 µM [falling, single point]. Further, the concentration at half-maximal activity (AC50) under setting [2] is 29.1 µM [falling, single point]. Consider `O=C(COc1ncnc2sccc12)Nc1cccc(S(=O)(=O)N2CCOCC2)c1`, for which the cell number change was 9%. In addition, the AC50 under setting [1] is 3.26 µM [falling, single point]. Consider `COc1ccccc1NC=C1C(=O)OC(C)(C)OC1=O`, for which the cell number change was -9.25%. Besides, under setting [2], the AC50 is 4.11 µM [rising, single point]. Take `O=C1NC(=S)S/C1=C\c1coc2ccccc2c1=O`: the cell number change came to 32.3%. Further, under setting [1], the AC50 was 0.517 µM [rising, full curve]. In the case of `CCOC(=O)/C(=C/C=C1\Sc2cc(C)c(C)cc2N1CC)C(C)=O`, the cell number change was -96.9%. Under setting [1], the half-maximal activity concentration (AC50) was 20.6 µM [falling, partial curve]. Under setting [2], the half-maximal activity concentration (AC50) was 2.59 µM [falling, full curve]. Take `CC(=O)NC(Cc1ccc(C)cc1)C(=O)NC1CCN(c2ncccc2[N+](=O)[O-])CC1` (stereo not given): the cell number change was 8.35%. Besides, the AC50 under setting [2] was 20.6 µM [rising, partial curve, poor fit]. In the case of `COC(=O)c1cc(=O)n(Cc2ccc3c(c2)OCO3)c(=Nc2ccccc2)s1`, the cell number change is 10.9%. The half-maximal activity concentration (AC50) under setting [1] was 0.0058 µM [rising, full curve, poor fit]. Take `CCOc1ccc(C(C)=O)cc1COC(=O)CCc1cc(OC)c(OC)c(OC)c1`: the cell number change was determined as 9.24%. Also, the concentration at half-maximal activity (AC50) under setting [2] is 6.51 µM [falling, single point]. With `CC(=O)c1ccc(Nc2ncnc3c2oc2ccccc23)cc1`, the cell number change was -2.65%. Further, the AC50 under setting [2] was 0.291 µM [rising, full curve]. For the compound `COc1ccc(-c2cn3cc(C)ccc3n2)cc1Br`, the cell number change came to 32.1%. The AC50 under setting [1] is 7.31 µM [rising, partial curve, poor fit]. The concentration at half-maximal activity (AC50) under setting [2] is 8.2 µM [rising, partial curve].

In the case of `C[C@@]12C(=O)N(c3ccc(C(F)(F)F)cc3)C(=O)N1[C@@H]1c3ccccc3OC[C@@H]1[C@H]2c1ccccc1`, the cell number change was determined as 51.1%. Further, the AC50 under setting [1] was 25.9 µM [rising, partial curve, poor fit]. Under setting [2], the concentration at half-maximal activity (AC50) is 29.1 µM [rising, single point].

On to `CCCNc1c(NS(=O)(=O)c2ccc(OC)c(OC)c2)c(=O)oc2ccccc12`, for which the cell number change is -28.9%. The half-maximal activity concentration (AC50) under setting [1] is 2.91 µM [falling, single point]. Besides, the AC50 under setting [2] was 6.51 µM [falling, partial curve]. Take `CC(=O)N1CCCc2cc(S(=O)(=O)N3CCCC(C(=O)NCc4ccc(C)cc4)C3)ccc21` (stereo not given): the cell number change was 15.6%. Besides, the AC50 under setting [2] was 0.00517 µM [falling, full curve, poor fit].

In the case of `CCCn1nnnc1NC(=O)c1cc(Br)ccc1OC`, the cell number change came out at 1.12%. As for `Cn1c(=O)[nH]c(=O)c2c1nc(N1CCOCC1)n2CC(O)COc1ccccc1` (stereo not given), the cell number change was -19.9%. Under setting [2], the AC50 was 0.517 µM [rising, full curve, poor fit]. Take `COc1ccc(/C=N/n2c(=S)n(C)c3ccccc32)cc1OC`: the cell number change was 63%. In addition, under setting [1], the concentration at half-maximal activity (AC50) was 6.51 µM [rising, full curve]. Under setting [2], the half-maximal activity concentration (AC50) was 4.61 µM [rising, full curve]. As for `O=C(O)C1C2CCC(CC2)C1C(=O)N1CCN(Cc2ccc(F)cc2)CC1` (stereo not given), the cell number change was 17.4%. Take `Cc1sc(NC(=O)CCl)c(C(=O)c2ccccc2)c1C`: the cell number change is -36.7%. Further, under setting [1], the concentration at half-maximal activity (AC50) is 14.6 µM [falling, single point]. Also, under setting [2], the AC50 is 20.6 µM [falling, single point]. In the case of `CC1CC(=O)Nc2ccccc2N1S(=O)(=O)c1ccccc1` (stereo not given), the cell number change came to 23.7%. The concentration at half-maximal activity (AC50) under setting [1] was 1.03 µM [falling, partial curve, poor fit]. In addition, under setting [2], the half-maximal activity concentration (AC50) is 1.3 µM [falling, full curve]. As to `O=C(COC(=O)c1ccccc1OC(F)F)Nc1ccc(N2CCCCC2)cc1`, the cell number change is 25.2%. Further, the AC50 under setting [2] is 10.3 µM [rising, partial curve, poor fit]. As to `CC(=O)C1=C(c2ccccc2)N(C(C)=O)n2c(C)nnc2S1`, the cell number change is -129%. Further, under setting [1], the concentration at half-maximal activity (AC50) is 4.11 µM [falling, partial curve]. Consider `CCOc1ccc(S(=O)(=O)N2CCCC(C(=O)NCc3ccncc3)C2)cc1Cl` (stereo not given), for which the concentration at half-maximal activity (AC50) under setting [2] was 5.17 µM [falling, partial curve]. As to `CCCCC(=O)Nc1ccc2c(c1)nc(CCN1CCOCC1)n2C`, the cell number change was -1.97%. The AC50 under setting [2] was 20.6 µM [rising, single point]. With `Cc1cc(C)cc(N(C(=O)Cc2cccs2)C(C(=O)NC2CCCC2)c2ccc(C)o2)c1` (stereo not given), the cell number change is 85.1%. For the same compound, the AC50 under setting [1] was 29.1 µM [rising, single point]. In the case of `Cc1cccc(C)c1OC(=O)CN1C(=O)c2ccccc2C1=O`, the cell number change was found to be 111%. Besides, under setting [1], the half-maximal activity concentration (AC50) is 29.1 µM [rising, single point]. Moreover, the concentration at half-maximal activity (AC50) under setting [2] is 0.58 µM [falling, single point]. For `Cn1c(=NCC(O)COc2ccccc2)sc2ccccc21` (stereo not given), the cell number change was -6.41%. Under setting [2], the half-maximal activity concentration (AC50) is 0.291 µM [rising, full curve, poor fit]. As to `CCOC(=O)C1=C(O)/C(=C/c2ccc(OCC(=O)O)c(OC)c2)SC1=Nc1ccc(OCC)cc1`, the cell number change was 43.6%. For the same compound, the AC50 under setting [1] was 0.13 µM [rising, full curve]. The AC50 under setting [2] is 2.59 µM [rising, partial curve].
